These are yes or no findings as the source states them, for the method shown.
Key:
Test in all cases: ELISA; complement proteins immobilised in microtiter plates; 25 nM hFH or MFHR1^V62; detected with anti-FH polyclonal antibodies; both purified
[1] = biological target: C7 (human) (UniProt P10643)
[2] = biological target: C9 (human) (UniProt P02748)
[3] = biological target: C6 (human) (UniProt P13671)
[4] = biological target: C8 (human) (UniProt P07357+P07358+P07360)

By UniProt entry, the sequences of proteins in these tests, tags left out. Where a name states a change or a piece, a line headed by the entry shows the natural chain unless it says otherwise. Residues count along the entry.
UniProt P10643, residues 23-843: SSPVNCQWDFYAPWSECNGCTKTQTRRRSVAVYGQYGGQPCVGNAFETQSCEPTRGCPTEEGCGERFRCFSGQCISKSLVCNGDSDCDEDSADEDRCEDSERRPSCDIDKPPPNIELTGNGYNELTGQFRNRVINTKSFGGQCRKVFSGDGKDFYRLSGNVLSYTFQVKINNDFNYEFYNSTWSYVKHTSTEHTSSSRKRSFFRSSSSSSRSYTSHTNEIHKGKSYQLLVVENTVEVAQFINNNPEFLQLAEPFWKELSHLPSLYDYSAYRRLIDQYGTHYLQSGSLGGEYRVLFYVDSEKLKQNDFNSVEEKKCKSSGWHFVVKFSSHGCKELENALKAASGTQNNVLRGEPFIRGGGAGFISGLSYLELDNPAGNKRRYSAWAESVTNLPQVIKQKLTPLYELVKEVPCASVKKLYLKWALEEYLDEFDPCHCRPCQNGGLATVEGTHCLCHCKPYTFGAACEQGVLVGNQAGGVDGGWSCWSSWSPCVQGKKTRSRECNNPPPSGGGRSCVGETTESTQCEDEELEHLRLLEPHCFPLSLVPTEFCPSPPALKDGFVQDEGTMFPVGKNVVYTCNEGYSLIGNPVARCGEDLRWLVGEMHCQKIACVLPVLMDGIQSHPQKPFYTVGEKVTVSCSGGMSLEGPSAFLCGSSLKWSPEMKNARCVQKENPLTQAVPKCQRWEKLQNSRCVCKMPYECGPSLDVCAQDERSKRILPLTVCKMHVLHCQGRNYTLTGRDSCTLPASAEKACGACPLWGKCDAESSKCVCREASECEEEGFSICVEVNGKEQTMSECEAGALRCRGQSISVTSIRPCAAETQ
UniProt P02748, residues 22-559: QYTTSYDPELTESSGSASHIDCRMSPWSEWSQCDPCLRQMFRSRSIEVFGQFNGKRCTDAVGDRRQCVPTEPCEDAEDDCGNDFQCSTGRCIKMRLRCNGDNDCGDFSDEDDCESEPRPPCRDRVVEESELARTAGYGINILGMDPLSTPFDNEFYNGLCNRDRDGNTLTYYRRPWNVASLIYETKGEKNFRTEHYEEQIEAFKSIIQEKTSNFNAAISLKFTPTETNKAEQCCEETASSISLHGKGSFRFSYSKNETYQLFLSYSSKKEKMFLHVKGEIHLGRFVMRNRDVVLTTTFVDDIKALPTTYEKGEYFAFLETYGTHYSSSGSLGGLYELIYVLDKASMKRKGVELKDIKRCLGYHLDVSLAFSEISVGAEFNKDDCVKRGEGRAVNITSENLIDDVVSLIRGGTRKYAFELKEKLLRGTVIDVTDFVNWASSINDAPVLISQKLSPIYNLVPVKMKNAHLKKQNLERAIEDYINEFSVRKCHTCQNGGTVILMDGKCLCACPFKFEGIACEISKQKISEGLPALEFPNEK
UniProt P13671, residues 22-934: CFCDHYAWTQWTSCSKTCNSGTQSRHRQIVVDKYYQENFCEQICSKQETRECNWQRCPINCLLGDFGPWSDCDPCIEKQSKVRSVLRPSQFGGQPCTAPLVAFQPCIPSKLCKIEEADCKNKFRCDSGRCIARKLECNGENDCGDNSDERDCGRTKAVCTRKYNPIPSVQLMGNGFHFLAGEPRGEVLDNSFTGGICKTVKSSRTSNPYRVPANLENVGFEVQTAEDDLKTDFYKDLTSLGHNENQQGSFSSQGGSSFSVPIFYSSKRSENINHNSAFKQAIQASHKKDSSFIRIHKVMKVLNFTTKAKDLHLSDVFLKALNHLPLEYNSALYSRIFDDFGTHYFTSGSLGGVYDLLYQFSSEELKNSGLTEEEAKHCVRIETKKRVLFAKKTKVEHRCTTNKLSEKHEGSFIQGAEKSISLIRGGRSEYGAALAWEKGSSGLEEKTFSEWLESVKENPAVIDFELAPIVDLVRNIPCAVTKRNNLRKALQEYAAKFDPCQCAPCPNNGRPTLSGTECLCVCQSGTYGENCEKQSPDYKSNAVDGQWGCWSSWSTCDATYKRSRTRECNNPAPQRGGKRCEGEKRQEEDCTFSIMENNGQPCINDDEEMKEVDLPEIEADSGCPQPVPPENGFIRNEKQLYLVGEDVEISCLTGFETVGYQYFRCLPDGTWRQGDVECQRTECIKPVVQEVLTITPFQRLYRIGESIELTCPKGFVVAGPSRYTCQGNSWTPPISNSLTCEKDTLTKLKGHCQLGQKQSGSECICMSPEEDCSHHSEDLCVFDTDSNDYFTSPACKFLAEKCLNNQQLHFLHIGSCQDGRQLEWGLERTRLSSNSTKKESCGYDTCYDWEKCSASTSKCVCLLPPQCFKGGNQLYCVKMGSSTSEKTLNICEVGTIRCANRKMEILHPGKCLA
UniProt P07357: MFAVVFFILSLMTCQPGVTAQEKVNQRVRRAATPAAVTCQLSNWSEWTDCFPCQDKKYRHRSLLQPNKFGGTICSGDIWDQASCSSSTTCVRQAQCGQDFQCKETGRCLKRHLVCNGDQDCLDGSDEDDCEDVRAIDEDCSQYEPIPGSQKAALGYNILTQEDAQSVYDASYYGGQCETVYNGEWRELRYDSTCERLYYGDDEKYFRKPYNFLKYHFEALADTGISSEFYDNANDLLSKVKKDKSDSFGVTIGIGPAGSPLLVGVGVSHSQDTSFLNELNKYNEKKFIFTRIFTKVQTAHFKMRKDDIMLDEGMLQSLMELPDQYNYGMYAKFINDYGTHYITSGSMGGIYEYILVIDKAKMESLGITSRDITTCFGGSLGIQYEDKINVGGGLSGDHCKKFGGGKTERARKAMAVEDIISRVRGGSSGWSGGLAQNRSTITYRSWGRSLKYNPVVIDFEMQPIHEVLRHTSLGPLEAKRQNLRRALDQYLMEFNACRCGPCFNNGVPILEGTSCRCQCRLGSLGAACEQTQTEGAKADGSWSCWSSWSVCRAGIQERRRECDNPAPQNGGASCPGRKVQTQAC
UniProt P07358: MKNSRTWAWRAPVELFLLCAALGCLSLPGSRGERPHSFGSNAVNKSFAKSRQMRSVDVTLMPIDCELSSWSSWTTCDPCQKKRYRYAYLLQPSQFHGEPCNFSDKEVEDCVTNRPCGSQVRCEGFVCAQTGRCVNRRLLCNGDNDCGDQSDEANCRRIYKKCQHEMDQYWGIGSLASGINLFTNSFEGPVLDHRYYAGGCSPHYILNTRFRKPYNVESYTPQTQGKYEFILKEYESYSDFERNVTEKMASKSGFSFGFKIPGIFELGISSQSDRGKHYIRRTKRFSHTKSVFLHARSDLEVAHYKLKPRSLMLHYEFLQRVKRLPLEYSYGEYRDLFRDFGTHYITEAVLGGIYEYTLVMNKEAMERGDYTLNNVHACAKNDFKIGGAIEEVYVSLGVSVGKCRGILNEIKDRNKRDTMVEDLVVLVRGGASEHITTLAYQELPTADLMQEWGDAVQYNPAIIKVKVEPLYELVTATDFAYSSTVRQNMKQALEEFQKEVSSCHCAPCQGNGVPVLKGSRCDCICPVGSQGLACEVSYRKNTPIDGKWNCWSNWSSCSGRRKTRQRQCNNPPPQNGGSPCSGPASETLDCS
UniProt P07360: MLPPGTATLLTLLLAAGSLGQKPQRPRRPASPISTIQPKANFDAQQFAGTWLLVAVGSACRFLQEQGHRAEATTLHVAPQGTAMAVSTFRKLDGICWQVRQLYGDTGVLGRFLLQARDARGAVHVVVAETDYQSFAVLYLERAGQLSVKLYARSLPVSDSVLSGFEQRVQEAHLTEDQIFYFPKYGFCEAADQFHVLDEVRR
UniProt P08603, residues 19-1231: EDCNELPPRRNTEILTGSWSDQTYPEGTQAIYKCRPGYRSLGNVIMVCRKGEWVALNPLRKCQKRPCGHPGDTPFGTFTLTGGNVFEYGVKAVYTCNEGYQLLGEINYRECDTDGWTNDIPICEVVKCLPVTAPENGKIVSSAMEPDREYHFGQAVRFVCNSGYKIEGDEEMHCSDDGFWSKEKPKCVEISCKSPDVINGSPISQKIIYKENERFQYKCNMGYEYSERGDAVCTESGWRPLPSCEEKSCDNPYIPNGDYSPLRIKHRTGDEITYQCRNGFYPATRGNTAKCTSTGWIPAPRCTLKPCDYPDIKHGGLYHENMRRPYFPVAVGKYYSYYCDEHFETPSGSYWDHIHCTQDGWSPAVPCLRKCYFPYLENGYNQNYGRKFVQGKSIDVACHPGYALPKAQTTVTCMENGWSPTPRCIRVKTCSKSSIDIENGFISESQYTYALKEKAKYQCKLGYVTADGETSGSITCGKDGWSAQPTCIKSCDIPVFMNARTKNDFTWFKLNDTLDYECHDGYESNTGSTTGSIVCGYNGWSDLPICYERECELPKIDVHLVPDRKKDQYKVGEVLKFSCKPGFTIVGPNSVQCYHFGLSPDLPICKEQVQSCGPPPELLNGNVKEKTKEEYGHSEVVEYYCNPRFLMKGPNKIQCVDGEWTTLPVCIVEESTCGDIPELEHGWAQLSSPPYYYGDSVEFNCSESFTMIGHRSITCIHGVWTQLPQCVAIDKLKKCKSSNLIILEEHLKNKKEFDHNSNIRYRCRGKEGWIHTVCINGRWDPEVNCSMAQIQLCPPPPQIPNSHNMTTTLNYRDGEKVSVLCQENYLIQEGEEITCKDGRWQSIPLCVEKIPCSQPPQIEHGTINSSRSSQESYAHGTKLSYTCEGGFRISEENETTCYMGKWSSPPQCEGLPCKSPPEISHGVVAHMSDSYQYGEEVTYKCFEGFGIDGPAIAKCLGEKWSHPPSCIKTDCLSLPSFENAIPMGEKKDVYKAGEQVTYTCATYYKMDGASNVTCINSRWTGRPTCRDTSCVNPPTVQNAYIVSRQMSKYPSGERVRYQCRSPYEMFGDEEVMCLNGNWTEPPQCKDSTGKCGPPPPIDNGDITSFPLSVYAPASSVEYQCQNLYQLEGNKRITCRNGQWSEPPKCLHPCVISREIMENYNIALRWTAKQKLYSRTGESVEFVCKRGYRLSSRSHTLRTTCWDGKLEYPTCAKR

Measured: binding

human factor H, plasma-derived (hFH) (from UniProt P08603 19-1231)
no binding (tested: 25 nM): all assays above
